Six molecules from PMC7145602 can be followed below.

The labels stand for the following.
T1: Flag-Regnase-1 (mouse) (UniProt Q5D1E7)
T1 sequence: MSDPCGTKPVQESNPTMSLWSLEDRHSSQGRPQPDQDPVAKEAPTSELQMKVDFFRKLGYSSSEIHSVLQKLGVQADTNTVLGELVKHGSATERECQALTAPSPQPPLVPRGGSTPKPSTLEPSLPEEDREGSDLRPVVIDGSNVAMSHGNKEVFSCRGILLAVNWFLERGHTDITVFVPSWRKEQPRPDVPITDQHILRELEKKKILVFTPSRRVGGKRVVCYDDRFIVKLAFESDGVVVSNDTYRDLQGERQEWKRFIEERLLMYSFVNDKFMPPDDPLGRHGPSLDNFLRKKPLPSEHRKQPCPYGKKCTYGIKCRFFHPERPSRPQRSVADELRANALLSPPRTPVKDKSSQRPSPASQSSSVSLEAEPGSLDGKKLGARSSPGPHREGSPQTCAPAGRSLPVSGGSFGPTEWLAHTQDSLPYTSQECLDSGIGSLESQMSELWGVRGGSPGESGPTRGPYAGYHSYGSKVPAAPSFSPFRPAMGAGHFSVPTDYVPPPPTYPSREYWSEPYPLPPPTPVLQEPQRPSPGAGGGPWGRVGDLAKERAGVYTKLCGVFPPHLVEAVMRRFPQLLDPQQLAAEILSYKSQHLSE

T2: SBP-GFP-UPF1-(610–914) (pEFh-SBP-GFP-hUPF1-(610–914)) (human) (UniProt Q92900)
T2 sequence: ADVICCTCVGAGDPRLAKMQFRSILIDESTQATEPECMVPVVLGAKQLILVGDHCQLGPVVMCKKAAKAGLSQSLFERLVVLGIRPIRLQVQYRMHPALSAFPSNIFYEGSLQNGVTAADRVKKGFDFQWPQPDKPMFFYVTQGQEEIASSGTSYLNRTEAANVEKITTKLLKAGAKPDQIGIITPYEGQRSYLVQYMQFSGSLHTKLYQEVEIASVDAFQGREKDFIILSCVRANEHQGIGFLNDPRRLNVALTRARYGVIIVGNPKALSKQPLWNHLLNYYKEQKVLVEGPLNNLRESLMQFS

B1: Myc-hUPF1-G495R/G497E (pCMV-Myc-hUPF1-G495R/G497E) (protein, UniProt Q92900-2 1-1118)
chain: MSVEAYGPSSQTLTFLDTEEAELLGADTQGSEFEFTDFTLPSQTQTPPGGPGGPGGGGAGGPGGAGAGAAAGQLDAQVGPEGILQNGAVDDSVAKTSQLLAELNFEEDEEDTYYTKDLPIHACSYCGIHDPACVVYCNTSKKWFCNGRGNTSGSHIVNHLVRAKCKEVTLHKDGPLGETVLECYNCGCRNVFLLGFIPAKADSVVVLLCRQPCASQSSLKDINWDSSQWQPLIQDRCFLSWLVKIPSEQEQLRARQITAQQINKLEELWKENPSATLEDLEKPGVDEEPQHVLLRYEDAYQYQNIFGPLVKLEADYDKKLKESQTQDNITVRWDLGLNKKRIAYFTLPKTDSDMRLMQGDEICLRYKGDLAPLWKGIGHVIKVPDNYGDEIAIELRSSVGAPVEVTHNFQVDFVWKSTSFDRMQSALKTFAVDETSVSGYIYHKLLGHEVEDVIIKCQLPKRFTAQGLPDLNHSQVYAVKTVLQRPLSLIQGPPRTEKTVTSATIVYHLARQGNGPVLVCAPSNIAVDQLTEKIHQTGLKVVRLCAKSREAIDSPVSFLALHNQIRNMDSMPELQKLQQLKDETGELSSADEKRYRALKRTAERELLMNADVICCTCVGAGDPRLAKMQFRSILIDESTQATEPECMVPVVLGAKQLILVGDHCQLGPVVMCKKAAKAGLSQSLFERLVVLGIRPIRLQVQYRMHPALSAFPSNIFYEGSLQNGVTAADRVKKGFDFQWPQPDKPMFFYVTQGQEEIASSGTSYLNRTEAANVEKITTKLLKAGAKPDQIGIITPYEGQRSYLVQYMQFSGSLHTKLYQEVEIASVDAFQGREKDFIILSCVRANEHQGIGFLNDPRRLNVALTRARYGVIIVGNPKALSKQPLWNHLLNYYKEQKVLVEGPLNNLRESLMQFSKPRKLVNTINPGARFMTTAMYDAREAIIPGSVYDRSSQGRPSSMYFQTHDQIGMISAGPSHVAAMNIPIPFNLVMPPMPPPGYFGQANGPAAGRGTPKGKTGRGGRQKNRFGLPGPSQTNLPNSQASQDVASQPFSQGALTQGYISMSQPSQMSQPGLSQPELSQDSYLGDEFKSQIDVALSQDSTYQGERAYQHGGVTGLSQY
B2: HA-UPF1-ΔNT (amino acids 64–1118) (domain or fragment, UniProt Q92900-2 64-1118)
chain: GAGAGAAAGQLDAQVGPEGILQNGAVDDSVAKTSQLLAELNFEEDEEDTYYTKDLPIHACSYCGIHDPACVVYCNTSKKWFCNGRGNTSGSHIVNHLVRAKCKEVTLHKDGPLGETVLECYNCGCRNVFLLGFIPAKADSVVVLLCRQPCASQSSLKDINWDSSQWQPLIQDRCFLSWLVKIPSEQEQLRARQITAQQINKLEELWKENPSATLEDLEKPGVDEEPQHVLLRYEDAYQYQNIFGPLVKLEADYDKKLKESQTQDNITVRWDLGLNKKRIAYFTLPKTDSDMRLMQGDEICLRYKGDLAPLWKGIGHVIKVPDNYGDEIAIELRSSVGAPVEVTHNFQVDFVWKSTSFDRMQSALKTFAVDETSVSGYIYHKLLGHEVEDVIIKCQLPKRFTAQGLPDLNHSQVYAVKTVLQRPLSLIQGPPGTGKTVTSATIVYHLARQGNGPVLVCAPSNIAVDQLTEKIHQTGLKVVRLCAKSREAIDSPVSFLALHNQIRNMDSMPELQKLQQLKDETGELSSADEKRYRALKRTAERELLMNADVICCTCVGAGDPRLAKMQFRSILIDESTQATEPECMVPVVLGAKQLILVGDHCQLGPVVMCKKAAKAGLSQSLFERLVVLGIRPIRLQVQYRMHPALSAFPSNIFYEGSLQNGVTAADRVKKGFDFQWPQPDKPMFFYVTQGQEEIASSGTSYLNRTEAANVEKITTKLLKAGAKPDQIGIITPYEGQRSYLVQYMQFSGSLHTKLYQEVEIASVDAFQGREKDFIILSCVRANEHQGIGFLNDPRRLNVALTRARYGVIIVGNPKALSKQPLWNHLLNYYKEQKVLVEGPLNNLRESLMQFSKPRKLVNTINPGARFMTTAMYDAREAIIPGSVYDRSSQGRPSSMYFQTHDQIGMISAGPSHVAAMNIPIPFNLVMPPMPPPGYFGQANGPAAGRGTPKGKTGRGGRQKNRFGLPGPSQTNLPNSQASQDVASQPFSQGALTQGYISMSQPSQMSQPGLSQPELSQDSYLGDEFKSQIDVALSQDSTYQGERAYQHGGVTGLSQY
B3: SBP-GFP-UPF1-(610–914) (pEFh-SBP-GFP-hUPF1-(610–914)) (domain or fragment, UniProt Q92900-2 610-914)
chain: T2 sequence
B4: HA-UPF1-ΔNCT (amino acids 64–1027) (domain or fragment, UniProt Q92900-2 64-1027)
chain: GAGAGAAAGQLDAQVGPEGILQNGAVDDSVAKTSQLLAELNFEEDEEDTYYTKDLPIHACSYCGIHDPACVVYCNTSKKWFCNGRGNTSGSHIVNHLVRAKCKEVTLHKDGPLGETVLECYNCGCRNVFLLGFIPAKADSVVVLLCRQPCASQSSLKDINWDSSQWQPLIQDRCFLSWLVKIPSEQEQLRARQITAQQINKLEELWKENPSATLEDLEKPGVDEEPQHVLLRYEDAYQYQNIFGPLVKLEADYDKKLKESQTQDNITVRWDLGLNKKRIAYFTLPKTDSDMRLMQGDEICLRYKGDLAPLWKGIGHVIKVPDNYGDEIAIELRSSVGAPVEVTHNFQVDFVWKSTSFDRMQSALKTFAVDETSVSGYIYHKLLGHEVEDVIIKCQLPKRFTAQGLPDLNHSQVYAVKTVLQRPLSLIQGPPGTGKTVTSATIVYHLARQGNGPVLVCAPSNIAVDQLTEKIHQTGLKVVRLCAKSREAIDSPVSFLALHNQIRNMDSMPELQKLQQLKDETGELSSADEKRYRALKRTAERELLMNADVICCTCVGAGDPRLAKMQFRSILIDESTQATEPECMVPVVLGAKQLILVGDHCQLGPVVMCKKAAKAGLSQSLFERLVVLGIRPIRLQVQYRMHPALSAFPSNIFYEGSLQNGVTAADRVKKGFDFQWPQPDKPMFFYVTQGQEEIASSGTSYLNRTEAANVEKITTKLLKAGAKPDQIGIITPYEGQRSYLVQYMQFSGSLHTKLYQEVEIASVDAFQGREKDFIILSCVRANEHQGIGFLNDPRRLNVALTRARYGVIIVGNPKALSKQPLWNHLLNYYKEQKVLVEGPLNNLRESLMQFSKPRKLVNTINPGARFMTTAMYDAREAIIPGSVYDRSSQGRPSSMYFQTHDQIGMISAGPSHVAAMNIPIPFNLVMPPMPPPGYFGQANGPAAGRGTPKGKTGRGGRQKNRFGL
B5: HA-UPF1-ΔCT (amino acids 6–1027) (domain or fragment, UniProt Q92900-2 6-1027)
chain: YGPSSQTLTFLDTEEAELLGADTQGSEFEFTDFTLPSQTQTPPGGPGGPGGGGAGGPGGAGAGAAAGQLDAQVGPEGILQNGAVDDSVAKTSQLLAELNFEEDEEDTYYTKDLPIHACSYCGIHDPACVVYCNTSKKWFCNGRGNTSGSHIVNHLVRAKCKEVTLHKDGPLGETVLECYNCGCRNVFLLGFIPAKADSVVVLLCRQPCASQSSLKDINWDSSQWQPLIQDRCFLSWLVKIPSEQEQLRARQITAQQINKLEELWKENPSATLEDLEKPGVDEEPQHVLLRYEDAYQYQNIFGPLVKLEADYDKKLKESQTQDNITVRWDLGLNKKRIAYFTLPKTDSDMRLMQGDEICLRYKGDLAPLWKGIGHVIKVPDNYGDEIAIELRSSVGAPVEVTHNFQVDFVWKSTSFDRMQSALKTFAVDETSVSGYIYHKLLGHEVEDVIIKCQLPKRFTAQGLPDLNHSQVYAVKTVLQRPLSLIQGPPGTGKTVTSATIVYHLARQGNGPVLVCAPSNIAVDQLTEKIHQTGLKVVRLCAKSREAIDSPVSFLALHNQIRNMDSMPELQKLQQLKDETGELSSADEKRYRALKRTAERELLMNADVICCTCVGAGDPRLAKMQFRSILIDESTQATEPECMVPVVLGAKQLILVGDHCQLGPVVMCKKAAKAGLSQSLFERLVVLGIRPIRLQVQYRMHPALSAFPSNIFYEGSLQNGVTAADRVKKGFDFQWPQPDKPMFFYVTQGQEEIASSGTSYLNRTEAANVEKITTKLLKAGAKPDQIGIITPYEGQRSYLVQYMQFSGSLHTKLYQEVEIASVDAFQGREKDFIILSCVRANEHQGIGFLNDPRRLNVALTRARYGVIIVGNPKALSKQPLWNHLLNYYKEQKVLVEGPLNNLRESLMQFSKPRKLVNTINPGARFMTTAMYDAREAIIPGSVYDRSSQGRPSSMYFQTHDQIGMISAGPSHVAAMNIPIPFNLVMPPMPPPGYFGQANGPAAGRGTPKGKTGRGGRQKNRFGL
B6: HA-UPF1-(6–429) (pSR-HA-hUPF1-(6–429)) (domain or fragment, UniProt Q92900-2 6-429)
chain: YGPSSQTLTFLDTEEAELLGADTQGSEFEFTDFTLPSQTQTPPGGPGGPGGGGAGGPGGAGAGAAAGQLDAQVGPEGILQNGAVDDSVAKTSQLLAELNFEEDEEDTYYTKDLPIHACSYCGIHDPACVVYCNTSKKWFCNGRGNTSGSHIVNHLVRAKCKEVTLHKDGPLGETVLECYNCGCRNVFLLGFIPAKADSVVVLLCRQPCASQSSLKDINWDSSQWQPLIQDRCFLSWLVKIPSEQEQLRARQITAQQINKLEELWKENPSATLEDLEKPGVDEEPQHVLLRYEDAYQYQNIFGPLVKLEADYDKKLKESQTQDNITVRWDLGLNKKRIAYFTLPKTDSDMRLMQGDEICLRYKGDLAPLWKGIGHVIKVPDNYGDEIAIELRSSVGAPVEVTHNFQVDFVWKSTSFDRMQSALKT

No constants are given. Whether binding was seen depends on the method and setting. Binding seen in cells or lysates may run through a third protein. Some entries that bind do so weakly or less than the wild type. Tags and fused reporters may be left off the sequences shown.

In one assay the target is T1, Flag-Regnase-1 (mouse). Description: co-IP; anti-Flag antibody on protein G magnetic beads, lysates of transfected HeLa cells (0.1% NP-40, 150 mM NaCl, 10 mM Tris-HCl pH 8.0), 3 h at 4°C; Flag-Regnase-1 precipitated, UPF1 constructs blotted; λ protein phosphatase treatment of lysates and SMG1 knockdown are said to reduce or inhibit the association.
With B1, the binding result was “binds”.

As to B2, the binding result was “no binding”.

Take B3: the binding result is reported as “binds”.

On to B4, for which the binding entry is listed as “binds”.

Take B5: the binding result is “binds”.

The next assay concerns the target T2, SBP-GFP-UPF1-(610–914) (pEFh-SBP-GFP-hUPF1-(610–914)) (human). Description: co-IP; anti-GFP antibody on protein G magnetic beads, lysates of transfected HeLa cells (0.1% NP-40, 150 mM NaCl, 10 mM Tris-HCl pH 8.0), 3 h at 4°C; GFP-UPF1 fragments precipitated.
As to B6, the binding entry is recorded as “binds”.
